“And” between values parts separate entries of the source, which are not always exact repeats. Equal values may be shown once. Some of the results follow. The main result of the screen is listed elsewhere. These columns were measured beside it and carry no call. The list favours compounds with an active or inconclusive main result. The note in brackets gives the kind of curve behind each potency; many fits are weak.
Test: qHTS Assay for Modulators of Lamin A Splicing
Conditions: HeLa LMNA splicing GFP/RFP minigene ratio, 48 h
Summary of the method: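 S3 HeLa cells stably expressing lamin A-EGFP splicing minigene plus DsRed2, 600 cells/well, 48 h compound exposure at 37C. Laser-scanning cytometry; analysed as GFP (500-530 nm)/RFP (575-640 nm) total intensity ratio; 0.5% DMSO vehicle.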

[1] = measured here: RFP viability control channel
[2] = measured here: GFP splicing reporter channel

SMILES | AC50 [1] | AC50 [2]
OC(COCc1ccc2c(c1)OCO2)CN1CCN(Cc2ccccc2)CC1 (stereo unspecified) | 0.316 µM [falling, partial curve] | –
CC(C)Oc1cccc(C(=O)Nc2ccc(CN3CCOCC3)cc2)c1 | 12.6 µM [rising, partial curve, poor fit] | –
CCOC(=O)C1CCN(C(=O)Cc2c(C(=O)O)n(C)c3ccccc23)CC1 | 5.62 µM [rising, single point] | 5.62 µM [rising, single point]
Cc1nnc(SCc2cc(=O)n3cccc(C)c3n2)s1 | – | 0.708 µM [rising, partial curve, poor fit]
CC(=O)C1=C(C)NC(=O)CC1c1ccc(Br)cc1 (stereo unspecified) | 0.0398 µM [falling, full curve, poor fit] | –
Clc1ccc(Cn2nc(-c3ccccc3)nc2-c2ccccc2)cc1 | 25.1 µM [rising, single point] | –
CC(C)C(c1nnnn1C(C)(C)C)N1CCC(Cc2ccccc2)CC1 (stereo unspecified) | 11.2 µM [rising, single point] | 10 µM [rising, partial curve]
CSc1ccc(OC2CCCCC2NS(=O)(=O)c2ccccc2)cc1 (stereo unspecified) | 15.8 µM [rising, single point] | –
CCCC(CCC)C(=O)Nc1cccc(-c2nc3cccnc3s2)c1C | 0.112 µM [falling, full curve, poor fit] | 4.47 µM [falling, partial curve]
COc1ccc(-c2nc(C(N)=O)c3[nH]c(=O)n(-c4cccc(Cl)c4)c3n2)cc1OC | 35.5 µM [falling, single point] | 35.5 µM [falling, single point]
O=c1c(O)c(-c2ccc(O)c(O)c2)oc2cc(O)ccc12 | 22.4 µM [falling, partial curve] | 12.6 µM [falling, single point]
CCN(CC)CCC[C@H](C)Nc1c2ccc(Cl)cc2nc2ccc(OC)cc12 | 8.91 µM [falling, single point] | 14.1 µM [falling, single point]
Cc1nc2ccn(Cc3ccco3)c(=O)c2cc1C(=O)NCc1ccccc1F | 0.501 µM [rising, full curve] | –
COc1cccc(NC(=O)c2cc(C(=O)Nc3cccc(OC)c3)n(C)n2)c1 | 3.55 µM [rising, single point] | –
Cn1cc(Br)c(C(=O)NC2C3CC4CC(C3)CC2C4)n1 (stereo unspecified) | 35.5 µM [rising, single point] | –
O=S(=O)(Nc1nc2ccccc2nc1Nc1ccc(N2CCOCC2)cc1)c1cc(Cl)ccc1Cl | 3.55 µM [rising, single point] | 3.16 µM [rising, single point]
COc1ccc(N2C(=O)CC(NNC(=O)c3ccco3)C2=O)cc1 (stereo unspecified) | 5.62 µM [rising, partial curve] | 5.62 µM [rising, partial curve]
O=C(NCCC1=CCCCC1)C(=O)NCC1OCCCN1S(=O)(=O)c1ccccc1 (stereo unspecified) | 35.5 µM [rising, single point] | –
COc1ccc(NS(=O)(=O)c2ccc3c(c2)CCC(=O)N3)c(OC)c1 | – | 20 µM [rising, partial curve, poor fit]
c1ccc(OCc2nn3c(-c4ccccn4)nnc3s2)cc1 | 25.1 µM [rising, single point] | 17.8 µM [rising, single point]
O=C(Nc1ccc(-c2nnc(-c3ccccc3)o2)cc1)C1CCCO1 (stereo unspecified) | 0.224 µM [falling, full curve, poor fit] | –
CCN(CC)c1ccc(-n2c(C)c(C(C)=O)c(C(C)=O)c2C)cc1 | 15.8 µM [rising, partial curve] | 15.8 µM [rising, partial curve]
Cn1c(C(=O)N2CCCc3ccccc32)cc2sccc21 | 0.251 µM [rising, full curve, poor fit] | 0.316 µM [rising, full curve, poor fit]
CCNc1nnc(CSc2nc3ccccc3s2)s1 | 35.5 µM [rising, partial curve] | –
CC(C)Cn1c(N)c(C(=O)CSc2ccc3c(c2)OCCO3)c(=O)n(C)c1=O | 3.98 µM [falling, partial curve] | –
N#C/C(=N/O)c1nc(-c2ccc(F)cc2)cs1 | 35.5 µM [rising, single point] | 22.4 µM [rising, partial curve, poor fit]
CCOC(=O)Nc1nc(-c2ccccc2)c(C(=O)c2ccc(Cl)cc2)s1 | 1.26 µM [rising, partial curve] | 3.98 µM [rising, single point]

SMILES | AC50 [1] | AC50 [2]
CC(C)(C)N(Cc1cc2ccccc2[nH]c1=O)C(=O)C1CCCCC1 | 0.0708 µM [falling, full curve] | 0.0891 µM [falling, full curve]
Cc1c(/C=N/O)c2ccccn2c1C=O | 3.16 µM [falling, single point] | 3.98 µM [falling, single point]
CCOC(=O)C1CCN(C(=O)c2sc3nc(-c4ccc(F)cc4)cn3c2C)CC1 | 11.2 µM [rising, partial curve] | 5.62 µM [rising, partial curve]
O=C(Nc1cccc2c1CCCC2)c1cc([N+](=O)[O-])ccc1Cl | 15.8 µM [falling, single point] | 31.6 µM [falling, single point]
CCOC(=O)N1N=C(C)CC1(O)c1ccc(Cl)cc1 (stereo unspecified) | – | 35.5 µM [falling, partial curve, poor fit]
COc1ccc(N(CC(=O)Nc2ccc3c(c2)OCCO3)S(C)(=O)=O)c(OC)c1 | 2.51 µM [falling, single point] | 0.355 µM [falling, partial curve]
Cc1nc2ccccc2n1CCc1nc2c3ccccc3nc(SCC(=O)Nc3cccc(C(F)(F)F)c3)n2n1 | 10 µM [falling, single point] | 10 µM [falling, partial curve]
COC(=O)c1c(NC(NC(=O)c2ccccc2)(C(F)(F)F)C(F)(F)F)sc2c1CCN(C)C2 | 31.6 µM [rising, single point] | –
Cc1nc(Nc2ccc(Cl)c(Cl)c2)sc1C(=O)Nc1ccccc1 | 25.1 µM [rising, single point] | 14.1 µM [rising, single point]
COc1cccc(CC(=S)N2CCOCC2)c1 | – | 2.82 µM [falling, partial curve]
CCOC(=O)c1cnc2c(OC)cccc2c1N1CCN(c2ccccc2OC)CC1 | 15.8 µM [rising, single point] | –
CCCc1nc2ccccc2c(=O)n1/N=C/c1ccc(O)cc1O | 25.1 µM [rising, single point] | 12.6 µM [rising, partial curve, poor fit]
Cc1ccc2nc(-c3ccc(NC(=O)COC(=O)c4ccco4)cc3)sc2c1 | 14.1 µM [rising, single point] | 11.2 µM [rising, single point]
CC(CCCC(C)(C)O)NC(=O)c1ccc(OC2CCN(C(=O)C3CC3)CC2)cc1 (stereo unspecified) | 0.251 µM [falling, full curve, poor fit] | –
COC(=O)/C=C\C(=O)Nc1cccc([N+](=O)[O-])c1 | – | 35.5 µM [falling, single point]
Cc1cc(C)cc(NC(=O)CSc2ccc(-c3ccco3)nn2)c1 | 35.5 µM [rising, single point] | –
COc1ccc(N2CCN(C(c3nnnn3CCc3ccccc3)C(C)C)CC2)cc1 (stereo unspecified) | 35.5 µM [rising, single point] | –
CCOc1ccc2c(c1)C(C)=CC(C)(C)N2 | 891 nM [falling, full curve, poor fit] and 14.1 µM [rising, single point] | 0.141 µM [falling, full curve]
CNC(=O)COC(=O)/C=C/c1cccs1 | 0.316 µM [rising, full curve] | –
CS(=O)(=O)c1ccc(Sc2nc3ccccc3s2)c([N+](=O)[O-])c1 | 2 µM [rising, partial curve] | 35.5 µM [falling, single point]
CC(=O)Nc1sc2c(c1C(c1cccs1)N1CCOCC1)CCCC2 (stereo unspecified) | 11.2 µM [rising, partial curve] | –
O=C(C1CCN(c2nnc(N3CCCC3=O)s2)CC1)N1CCN(Cc2ccc3c(c2)OCO3)CC1 | 11.2 µM [rising, partial curve] | –
COc1cc2c(cc1OC)C(c1ccc(-c3cc(Cl)ccc3Cl)o1)=NCC2 | 0.0891 µM [falling, full curve, poor fit] | 0.355 µM [falling, full curve]
Cc1cc(C)cc(NC(=O)c2sc3nc4n(c(=O)c3c2C)N=C(c2ccccc2)CS4)c1 | 12.6 µM [rising, partial curve, poor fit] | 0.0316 µM [rising, full curve, poor fit]
O=C(Nc1cccc(F)c1)N1CC=C(c2ccc(Cl)cc2)CC1 | 22.4 µM [rising, single point] | 12.6 µM [rising, partial curve, poor fit]
Nc1c(C(=O)Nc2cccc(F)c2)nnn1-c1cccc(C(F)(F)F)c1 | 0.794 µM [falling, full curve] | 0.0708 µM [falling, full curve, poor fit]

A draw from above in order of count of non-hydrogen atoms, smallest number first:
SMILES | AC50 [1] | AC50 [2]
CS(=O)(=O)c1ccc(Sc2nc3ccccc3s2)c([N+](=O)[O-])c1 | 2 µM [rising, partial curve] | 35.5 µM [falling, single point]
CC(=O)Nc1sc2c(c1C(c1cccs1)N1CCOCC1)CCCC2 (stereo unspecified) | 11.2 µM [rising, partial curve] | –
CCOC(=O)c1cnc2c(OC)cccc2c1N1CCN(c2ccccc2OC)CC1 | 15.8 µM [rising, single point] | –

Reference: PubChem BioAssay AID1487 (National Center for Advancing Translational Sciences (NCATS), 2009)
